Assay results published in paper doi:10.1101/2025.05.28.656678.
No constants are given. Whether binding was seen depends on the method and setting. Binding seen in cells or lysates may run through a third protein. A result given as binding can be weak or reduced; the word gives no strength. One block for each binder: values may come before it.

Target: MAP-free, paclitaxel-stabilized microtubules
Experiment: co-sedimentation

binding: binds
B1: DNAAF1 (protein, UniProt Q9D2H9 1-634)
chain: MHPEVSEPPVDSVAEPSLEESAGDHGDAGPGIRKEEISETKETCAGPCTTSCPSQQQPSGDNGSEGFCTHSRDDREDRGPRMTKQFLQKLCKQHKLYVTPALNDTLYLHFKGFDRIENLEEYTGLRCLWLECNGIQRIENLQAQSELRCLFLQVNLLHKIENLEPLQKLDALNLSNNYIKTIENLSCLPVLNTLQMAHNRLETVADIEHLRECLRLCVLDLSHNALSDPEILSVLESMPCLRVLNLMGNPVTKHIPNYRRTVTVRLKHLTYLDDRPVFPKDRACAEAWARGGYAAEKEERRQWESREHKKITDSLEALAMIKRRAEERKKARDRGETPLPDSEGSIPTSPEAEEKQPMGEIQKKMELFVEESFEAKDELFPETPGGEKELHVVVVNGAVENPDLSGSLAHNQTPVVVTPEESTSPVAATDGARTEDIEAVAVEIKERLFIDDLPDLEDAEGTDVSVEDQIKETDIPRIQAISSLSDDSDPELDELSLSTSEATPTGATGALSHIFAISKGPSTAATVPFTDICKPIATTDLESQGQDCGAAASRPLIQELNDEPAEEAANQPLPPQTCASDPALAHPSEDGDSDSQLPAATLLGDGAEDEAESSVHPKEPSTRVGLEDIEFGLD

binding: binds
B2: KIF15 (protein, UniProt Q6P9L6 1-1387)
chain: MAPGCKSELRNVTNSHSNQPSNEGDAIKVFVRIRPAEEGARSADGEQSFCLSVLSQTTLRLHSNPDPKTFVFDYVAGMDTTQESVFSTVAKSIVESCMSGYNGTIFAYGQTGSGKTFTMMGPSDSDNFSHNLRGIIPRSFEYLFSLIDREKEKAGAGKSFLCKCSFIEVYNEQIYDLLDSASVGLYLREHIKKGVFVVGAVEQAVTSAAETYQVLSRGWRNRRVASTSMNRESSRSHAVFTITIESMEKSSETVNIRTSLLNLVDLAGSERQKDTHAEGMRLKEAGNINRSLSCLGQVITALVDVGNGKQRHICYRDSKLTFLLRDSLGGNAKTAIIANVHPGSRCFGETLSTLNFAQRAKLIKNKAVVNEDTQGNVSQLQAEVKRLKEQLSQFTSGQITPESLLARDKEKTNYIEYFLEAMLFFKKSEQEKKSLIEKITQLEDLTLKKEKFIQSNKMIVKFREDQIMRLERLHKEGRGSFLPEEQDRLLSELRDEVQTLREHVEHHPRLAKYAMENHSLREENRRLKLLAPVKRAHEIDAQSIARLEKAFAEVSSTETNDKGLQGFSPKALKESSFFTNTEKLKAQLLQIQTELNNSKQEYEEFKELTRKKQLELESELQSLQKANLNLENLLEATKVCKRQEVSQLNKLHAETLKIITTPTKAYQLCSRLVPKSSPEVGSFGFLCTESSSRLDNDILNEPVPPEMSEQALEAVSEELRTVQEQLSVLQVKLDEEERKNLKLQQNVDKLEHHSTQMQELFSSERSDWTKQQQEHVTQLSDLEKQLQDAQTKNEFLKCEVHDLRIVLNSADKELSLVKLEYSTFKENHEKELSQLSERHVQVQLQLDNARLENEKLLESQACLQDSYDNLQEVMKFEIDQLSKNLQNCKQENETLKSDLHNLVELFEAEKERNNKLSLQFEEDKENSSKEILKVLETVRQEKQKEMAKCEKQMAKIQKLEESLLATENVISSLEKSRESDKELVTNLMNQIQELRISIGEKSETIATLKQELQDINCKYNASLADKEESKELIRRQEVDILELKETLRLRILSEDIERDMLCEDLAHATEQLNMLTEASKKHSGLLQSAQEELTRKEALIQELQHKLNQEKEEVEQKKNEFSLKMRQLEHVMGSATEYPQSPKTPPHFQAHLAKLLETQEQEIEDGRASKTSLQHLVTKLNEDREVKNAEILRMKDQLCEMENLRLESQQLREKNWLLQRQLDDVKRQQESGDQSHPDSQQLKNEHEEIIKERLAKNKLIEEMLKMKTNLEEVQSALHSKEKACHRMSEEIERTRTLESRAFQEKEQLRSKLEEMYEERERTFLEMEMLKKQLEFLAEENGKLVGHQNLHQKIQYVVRLKKENIRLTEETEKLRAENLFLKEKKKEF
